In patent publication US20160010147:
Residue numbers refer to the chain shown, from its start. For part of these data: The comparison behind a weaker result is the experiment's own reference, which may not be listed here. For part of these data: Tags and fusion partners may be left off the protein sequences shown. For part of these data: Construct, isoform or probe ends are uncertain for at least one entry.

Tests used:
[1] = test system: T1, TrwC Cba Q276C-3.4 kDa dimer (Citromicrobium bathyomarinum); experiment: activity assay; details: 28 iSpC3 between TT and SEQ 23; 4 iSpC3 between SEQ 23 and SEQ 24; SEQ 12 3' six iSp18-TT-cholesterol TEG; nanopore helicase-controlled movement; 20% long dwell movements; 10 mM MgCl2, 5 mM dTTP, 625 mM KCl; purified recombinant protein
T1 sequence (limits assumed): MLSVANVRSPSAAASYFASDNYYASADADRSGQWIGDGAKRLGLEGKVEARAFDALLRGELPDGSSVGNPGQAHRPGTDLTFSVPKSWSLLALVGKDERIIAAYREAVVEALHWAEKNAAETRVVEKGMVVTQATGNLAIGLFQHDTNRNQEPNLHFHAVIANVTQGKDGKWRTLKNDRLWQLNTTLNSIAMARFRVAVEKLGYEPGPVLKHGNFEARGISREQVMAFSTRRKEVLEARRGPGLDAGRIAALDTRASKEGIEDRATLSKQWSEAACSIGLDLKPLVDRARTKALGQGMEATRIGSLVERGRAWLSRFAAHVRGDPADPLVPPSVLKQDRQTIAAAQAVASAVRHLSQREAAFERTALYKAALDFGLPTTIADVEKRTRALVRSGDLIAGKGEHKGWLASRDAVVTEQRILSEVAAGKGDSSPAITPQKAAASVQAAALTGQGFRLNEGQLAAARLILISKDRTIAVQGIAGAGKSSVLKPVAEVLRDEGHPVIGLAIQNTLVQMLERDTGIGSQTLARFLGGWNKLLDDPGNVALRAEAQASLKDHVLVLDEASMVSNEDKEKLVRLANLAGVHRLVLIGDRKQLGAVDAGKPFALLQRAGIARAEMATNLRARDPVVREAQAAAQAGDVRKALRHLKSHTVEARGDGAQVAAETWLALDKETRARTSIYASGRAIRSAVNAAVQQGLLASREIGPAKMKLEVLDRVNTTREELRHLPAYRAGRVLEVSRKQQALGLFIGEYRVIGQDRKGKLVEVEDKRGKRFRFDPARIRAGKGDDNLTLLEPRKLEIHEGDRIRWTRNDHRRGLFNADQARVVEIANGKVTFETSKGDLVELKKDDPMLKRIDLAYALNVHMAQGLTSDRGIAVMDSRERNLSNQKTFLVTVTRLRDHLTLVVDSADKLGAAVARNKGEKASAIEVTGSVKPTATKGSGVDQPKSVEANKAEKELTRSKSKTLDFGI

[2] = test system: T2, TrwC Cba helicase (monomer) (Citromicrobium bathyomarinum); experiment: activity assay; details: 28 iSpC3 between TT and SEQ 23; 4 iSpC3 between SEQ 23 and SEQ 24; SEQ 12 3' six iSp18-TT-cholesterol TEG; nanopore helicase-controlled movement; 5% long dwell movements; 10 mM MgCl2, 5 mM dTTP, 625 mM KCl; purified recombinant protein
T2 sequence (limits assumed): T1 sequence (limits assumed) with C276Q

MuA transposase = MuA transposase (UniProt P07636); experiment: activity assay; details: 4 iSpC3 between SEQ 14 and 15 and between SEQ 19 and 9; dU in SEQ 19; transposed into lambda DNA; 30 C 1 h, 10 mM MgCl2; purified recombinant protein; protein details: Thermo, catalogue No. F-750C
[3] = target: T3, Hel308 Mbu helicase (Methanococcoides burtonii) (UniProt Q12WZ6); experiment: activity assay; details: dsDNA turnover observed; 400 mM KCl, 10 mM MgCl2, ATP; purified recombinant protein; label: 5'-FAM on SEQ 33, 3'-BHQ-1 on SEQ 26
T3 sequence: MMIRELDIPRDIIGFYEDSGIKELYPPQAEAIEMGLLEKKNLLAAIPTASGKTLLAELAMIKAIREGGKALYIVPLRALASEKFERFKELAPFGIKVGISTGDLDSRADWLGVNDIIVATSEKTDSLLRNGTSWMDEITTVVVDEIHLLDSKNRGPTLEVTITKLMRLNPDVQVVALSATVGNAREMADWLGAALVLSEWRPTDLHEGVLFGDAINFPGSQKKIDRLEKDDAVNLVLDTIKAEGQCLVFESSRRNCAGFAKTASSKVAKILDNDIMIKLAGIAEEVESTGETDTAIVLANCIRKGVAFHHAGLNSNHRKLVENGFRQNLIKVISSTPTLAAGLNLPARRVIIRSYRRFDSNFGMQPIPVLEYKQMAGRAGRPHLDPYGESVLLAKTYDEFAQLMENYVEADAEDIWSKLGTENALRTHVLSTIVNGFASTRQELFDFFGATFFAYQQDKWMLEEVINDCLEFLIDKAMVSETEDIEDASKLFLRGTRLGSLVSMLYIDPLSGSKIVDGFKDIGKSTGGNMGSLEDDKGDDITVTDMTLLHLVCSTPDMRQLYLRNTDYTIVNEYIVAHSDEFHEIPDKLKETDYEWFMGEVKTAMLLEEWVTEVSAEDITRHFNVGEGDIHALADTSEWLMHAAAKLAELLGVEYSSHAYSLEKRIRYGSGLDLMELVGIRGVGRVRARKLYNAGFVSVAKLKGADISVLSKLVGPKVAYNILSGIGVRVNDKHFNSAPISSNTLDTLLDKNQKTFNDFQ

[4] = target: T4 Dda-E94C/A360C helicase E94C/A360C, then (ΔM1)G1G2 (Enterobacteria phage T4) (UniProt P32270); experiment: EMSA; details: 5 iSpC3 at 5' end; 4 iSpC3 between T8 and SEQ 36; purified recombinant protein; label: 5'-FAM on SEQ 35; variant of Table 12 construct 1 (10T region)
[5] = target: T4 Dda-E94C/A360C helicase E94C/A360C, then (ΔM1)G1G2 (Enterobacteria phage T4) (UniProt P32270); experiment: activity assay; details: 25 SpC3 at 5' end; 4 iSp18 between SEQ 38 and SEQ 10; 4 5-nitroindoles between SEQ 10 and SEQ 41; SEQ 12 3' six iSp18-TT-cholesterol TEG; helicase-controlled movement through MspA nanopore; 10 mM MgCl2, 1 mM ATP, 600 mM KCl, 30 C; purified recombinant protein

TTTTTTTTTTTTTTTTTTTTTTTTTTTTTTTTTTTTTTTTTTTTTTTTGGTTGTTTCTGTTGGTGCTGATATTGCGCCATCAGATTGTGTTTGTTAGTCGCTTTTTTTTTTTGGAATTTTTTTTTTGGAATTTTTTTTTTGACGCTCAGTAATGTGACGATAGCTGAAAACTGTACGATAAACGGTACGCTGAGGGCGGAAAAAATCGTCGGGGACATTGTAAAGGCGGCGAGCGCGGCTTTTCCGCGCCAGCGTGAAAGCAGTGTGGACTGGCCGTCAGGTACCCGTACTGTCACCGTGACCGATGACCATCCTTTTGATCGCCAGATAGTGGTGCTTCCGCTGACGTTTCGCGGAAGTAAGCGTACTGTCAGCGGCAGGACAACGTATTCGATGTGTTATCTGAAAGTACTGATGAACGGTGCGGTGATTTATGATGGCGCGGCGAACGAGGCGGTACAGGTGTTCTCCCGTATTGTTGACATGCCAGCGGGTCGGGGAAACGTGATCCTGACGTTCACGCTTACGTCCACACGGCATTCGGCAGATATTCCGCCGTATACGTTTGCCAGCGATGTGCAGGTTATGGTGATTAAGAAACAGGCGCTGGGCATCAGCGTGGTCTGAGTGTGAAAAAAAAGGTACCAAAAAAAACATCGTCGTGAGTAGTGAACCGTAAGC / GCAATATCAGCACCAACAGAAACAACCT [Example 4 construct]
activity on this sequence [1]: active | activity on this sequence [2]: active

TTTTTTTTTTTTTTTTTTTTTTTTTTTTTTTTTTTTTTTTTTTTTTTTTTGGTTGTTTCTGTTGGTGCTGATATTGCGTTTTCGCATTTATCGTGAAACGCTTTCGCGTTTTTCGTGCGCCGCTTCA / GATCUGAAGCGGCGCACGAAAAACGCGAAAGCGTTTCACGATAAATGCGAAAACTTTTTTTTTTTTTTTTTTTTTTTTTTTTTTTTTTTTTTTTTTTTTTTTTT [Y-shaped MuA substrate (Example 2)]
activity on this sequence (MuA transposase): active

CTATTCTGTTTATGTTTCTTGTTTGTTAGCCCTATTCTGTCCCCCCCCCC / ACAGAATAGGGCTAACAAACAAGAAACATAAACAGAATAG [Substrate G]
activity on this sequence [3]: active

TTTTTTTTTCGCTGCTCCACAGGTCTCAGCTTGAGCAGCGA / TCGCTGCTCAAGCTGAGACCTGTGGAGCAGCGA [Table 12 construct 6 (8T region)]
binding result [4]: binds more weakly

TTTTTTTTTTTTTTTTTTTTGGTTGTTTCTGTTGGTGCTGATATTGCGCCATCAGATTGTGTTTGTTAGTCGCT / GCAATATCAGCACCAACAGAAACAACCT / AGCGACTAACAAACACAATCTGATGGC [DNA construct X1]
activity on this sequence [5]: active
